Reference: the supplement of paper PMC10849652
Some of the results follow.

Sequences of proteins named here, by UniProt entry; tags and fusion partners are left off. A change or cut given only in a name is not applied to a line headed by its entry.
UniProt P09874, whole entry, looked up: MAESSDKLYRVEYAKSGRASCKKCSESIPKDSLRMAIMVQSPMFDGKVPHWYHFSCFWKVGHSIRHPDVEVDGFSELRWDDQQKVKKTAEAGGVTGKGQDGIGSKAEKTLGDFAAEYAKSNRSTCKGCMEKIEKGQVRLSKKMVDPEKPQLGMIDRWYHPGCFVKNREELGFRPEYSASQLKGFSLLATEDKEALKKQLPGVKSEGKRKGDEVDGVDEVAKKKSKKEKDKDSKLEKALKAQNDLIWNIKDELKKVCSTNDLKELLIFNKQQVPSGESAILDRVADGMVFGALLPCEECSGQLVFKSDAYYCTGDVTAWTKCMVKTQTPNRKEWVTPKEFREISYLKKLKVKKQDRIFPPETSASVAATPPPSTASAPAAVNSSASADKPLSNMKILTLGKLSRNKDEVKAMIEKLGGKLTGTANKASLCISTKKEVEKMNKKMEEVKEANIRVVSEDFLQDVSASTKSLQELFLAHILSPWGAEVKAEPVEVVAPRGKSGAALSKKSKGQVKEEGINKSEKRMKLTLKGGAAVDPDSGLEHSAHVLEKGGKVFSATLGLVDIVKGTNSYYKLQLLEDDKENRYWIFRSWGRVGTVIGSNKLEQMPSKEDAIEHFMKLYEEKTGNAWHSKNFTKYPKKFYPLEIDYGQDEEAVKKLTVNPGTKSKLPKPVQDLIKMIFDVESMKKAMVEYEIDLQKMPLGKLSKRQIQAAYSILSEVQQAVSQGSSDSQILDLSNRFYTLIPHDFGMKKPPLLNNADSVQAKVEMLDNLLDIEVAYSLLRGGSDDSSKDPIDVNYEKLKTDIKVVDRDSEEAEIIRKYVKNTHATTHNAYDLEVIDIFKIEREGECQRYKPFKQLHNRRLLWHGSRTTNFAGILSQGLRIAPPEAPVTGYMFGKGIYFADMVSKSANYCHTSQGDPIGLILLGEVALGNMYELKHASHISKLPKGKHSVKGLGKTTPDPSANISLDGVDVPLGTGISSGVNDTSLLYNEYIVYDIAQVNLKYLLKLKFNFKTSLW
UniProt P30039: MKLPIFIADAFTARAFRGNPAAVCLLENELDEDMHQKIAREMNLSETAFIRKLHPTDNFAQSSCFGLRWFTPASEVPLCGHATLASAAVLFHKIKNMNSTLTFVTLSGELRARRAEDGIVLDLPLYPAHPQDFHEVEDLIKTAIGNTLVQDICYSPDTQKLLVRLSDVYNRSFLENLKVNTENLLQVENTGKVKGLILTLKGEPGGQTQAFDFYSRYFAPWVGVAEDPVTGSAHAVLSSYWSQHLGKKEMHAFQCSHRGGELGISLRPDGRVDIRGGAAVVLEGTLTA
UniProt P30086: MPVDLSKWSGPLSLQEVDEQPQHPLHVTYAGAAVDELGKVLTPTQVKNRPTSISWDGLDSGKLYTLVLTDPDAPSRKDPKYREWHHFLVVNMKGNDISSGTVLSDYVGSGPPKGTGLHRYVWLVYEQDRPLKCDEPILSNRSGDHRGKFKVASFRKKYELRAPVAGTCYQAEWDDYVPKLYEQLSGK
UniProt Q8WW12: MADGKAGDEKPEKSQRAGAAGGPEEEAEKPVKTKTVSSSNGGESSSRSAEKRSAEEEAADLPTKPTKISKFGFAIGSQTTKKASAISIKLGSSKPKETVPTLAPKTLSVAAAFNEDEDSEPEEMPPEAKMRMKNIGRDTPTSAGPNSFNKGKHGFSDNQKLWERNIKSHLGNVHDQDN
UniProt P30101, whole entry, looked up: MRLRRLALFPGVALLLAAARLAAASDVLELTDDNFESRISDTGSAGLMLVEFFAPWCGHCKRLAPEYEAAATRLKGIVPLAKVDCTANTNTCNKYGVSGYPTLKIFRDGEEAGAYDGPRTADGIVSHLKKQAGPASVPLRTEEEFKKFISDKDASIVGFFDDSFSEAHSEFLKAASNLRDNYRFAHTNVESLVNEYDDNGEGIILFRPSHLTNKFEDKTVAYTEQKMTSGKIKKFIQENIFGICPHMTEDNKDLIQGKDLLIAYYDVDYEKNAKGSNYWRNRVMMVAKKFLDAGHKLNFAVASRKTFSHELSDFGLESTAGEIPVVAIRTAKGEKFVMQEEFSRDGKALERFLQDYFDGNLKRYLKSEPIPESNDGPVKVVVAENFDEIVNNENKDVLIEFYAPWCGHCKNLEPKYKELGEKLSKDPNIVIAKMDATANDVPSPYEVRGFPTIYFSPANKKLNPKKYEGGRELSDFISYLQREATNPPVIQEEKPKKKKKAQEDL
UniProt Q9BTK6, whole entry, looked up: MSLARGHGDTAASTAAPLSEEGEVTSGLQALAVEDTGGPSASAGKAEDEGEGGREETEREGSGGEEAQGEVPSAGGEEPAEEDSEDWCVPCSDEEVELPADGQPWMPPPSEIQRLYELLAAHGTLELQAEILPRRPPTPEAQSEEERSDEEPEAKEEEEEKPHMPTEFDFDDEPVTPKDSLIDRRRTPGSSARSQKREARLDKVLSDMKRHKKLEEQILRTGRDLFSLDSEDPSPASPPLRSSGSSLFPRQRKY
UniProt P11498: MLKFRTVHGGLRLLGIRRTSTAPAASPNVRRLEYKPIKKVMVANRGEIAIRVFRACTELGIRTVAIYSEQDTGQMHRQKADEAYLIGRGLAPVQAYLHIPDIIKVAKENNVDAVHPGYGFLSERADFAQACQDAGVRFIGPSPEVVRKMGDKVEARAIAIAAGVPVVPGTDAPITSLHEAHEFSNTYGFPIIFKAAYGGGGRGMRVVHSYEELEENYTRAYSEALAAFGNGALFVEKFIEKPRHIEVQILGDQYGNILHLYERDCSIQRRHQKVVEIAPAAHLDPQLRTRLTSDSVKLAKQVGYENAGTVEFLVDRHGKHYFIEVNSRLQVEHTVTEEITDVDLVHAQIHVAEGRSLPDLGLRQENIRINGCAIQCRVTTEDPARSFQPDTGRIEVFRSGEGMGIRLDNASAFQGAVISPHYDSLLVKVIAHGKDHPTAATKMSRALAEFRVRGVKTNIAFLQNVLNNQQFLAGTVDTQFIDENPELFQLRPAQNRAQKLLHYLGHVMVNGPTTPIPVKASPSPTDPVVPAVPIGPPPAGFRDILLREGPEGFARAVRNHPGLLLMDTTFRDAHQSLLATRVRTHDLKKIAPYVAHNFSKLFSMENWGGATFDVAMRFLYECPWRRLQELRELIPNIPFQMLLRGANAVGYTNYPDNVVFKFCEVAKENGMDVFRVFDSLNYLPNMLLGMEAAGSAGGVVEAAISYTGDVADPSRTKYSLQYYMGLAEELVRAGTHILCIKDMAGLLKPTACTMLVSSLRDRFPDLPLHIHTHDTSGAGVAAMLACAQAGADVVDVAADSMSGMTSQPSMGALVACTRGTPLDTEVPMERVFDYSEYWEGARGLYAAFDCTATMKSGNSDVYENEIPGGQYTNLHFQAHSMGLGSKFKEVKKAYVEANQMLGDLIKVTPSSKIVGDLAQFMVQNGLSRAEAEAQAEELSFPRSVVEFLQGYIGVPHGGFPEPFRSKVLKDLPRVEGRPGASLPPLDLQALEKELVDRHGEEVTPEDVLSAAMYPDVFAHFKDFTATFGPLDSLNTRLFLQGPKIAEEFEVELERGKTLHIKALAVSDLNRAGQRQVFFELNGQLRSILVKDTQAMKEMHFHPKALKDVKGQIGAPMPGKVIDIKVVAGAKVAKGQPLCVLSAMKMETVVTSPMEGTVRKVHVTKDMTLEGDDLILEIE
UniProt Q9HBH1: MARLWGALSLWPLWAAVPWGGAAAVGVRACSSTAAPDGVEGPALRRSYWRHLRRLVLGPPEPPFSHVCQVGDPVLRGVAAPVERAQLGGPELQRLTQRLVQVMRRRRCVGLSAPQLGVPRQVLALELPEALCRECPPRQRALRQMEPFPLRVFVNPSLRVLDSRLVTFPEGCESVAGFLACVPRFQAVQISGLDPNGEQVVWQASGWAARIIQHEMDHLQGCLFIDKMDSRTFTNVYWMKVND
UniProt Q15084: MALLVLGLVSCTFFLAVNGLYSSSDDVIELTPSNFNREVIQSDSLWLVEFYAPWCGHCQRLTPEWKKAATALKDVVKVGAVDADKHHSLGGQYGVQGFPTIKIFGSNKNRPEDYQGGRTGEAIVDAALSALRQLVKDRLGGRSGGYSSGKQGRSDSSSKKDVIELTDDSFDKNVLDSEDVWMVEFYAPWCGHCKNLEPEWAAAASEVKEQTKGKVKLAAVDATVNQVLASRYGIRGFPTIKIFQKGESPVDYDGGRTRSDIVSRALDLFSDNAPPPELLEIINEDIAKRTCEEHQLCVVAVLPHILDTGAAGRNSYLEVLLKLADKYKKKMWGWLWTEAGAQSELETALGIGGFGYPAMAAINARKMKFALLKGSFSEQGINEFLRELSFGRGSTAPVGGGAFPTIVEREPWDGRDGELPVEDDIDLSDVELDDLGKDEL
UniProt Q15366, whole entry, looked up: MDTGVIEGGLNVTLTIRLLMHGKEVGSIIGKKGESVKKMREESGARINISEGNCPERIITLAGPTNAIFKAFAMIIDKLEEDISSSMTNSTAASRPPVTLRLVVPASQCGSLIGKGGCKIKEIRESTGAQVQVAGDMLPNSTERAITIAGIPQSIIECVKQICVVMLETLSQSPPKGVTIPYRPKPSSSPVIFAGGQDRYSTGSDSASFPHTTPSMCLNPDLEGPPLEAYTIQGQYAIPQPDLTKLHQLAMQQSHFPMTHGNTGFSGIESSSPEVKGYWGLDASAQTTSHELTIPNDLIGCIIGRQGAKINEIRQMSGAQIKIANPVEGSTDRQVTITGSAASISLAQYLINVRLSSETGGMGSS
UniProt P12955: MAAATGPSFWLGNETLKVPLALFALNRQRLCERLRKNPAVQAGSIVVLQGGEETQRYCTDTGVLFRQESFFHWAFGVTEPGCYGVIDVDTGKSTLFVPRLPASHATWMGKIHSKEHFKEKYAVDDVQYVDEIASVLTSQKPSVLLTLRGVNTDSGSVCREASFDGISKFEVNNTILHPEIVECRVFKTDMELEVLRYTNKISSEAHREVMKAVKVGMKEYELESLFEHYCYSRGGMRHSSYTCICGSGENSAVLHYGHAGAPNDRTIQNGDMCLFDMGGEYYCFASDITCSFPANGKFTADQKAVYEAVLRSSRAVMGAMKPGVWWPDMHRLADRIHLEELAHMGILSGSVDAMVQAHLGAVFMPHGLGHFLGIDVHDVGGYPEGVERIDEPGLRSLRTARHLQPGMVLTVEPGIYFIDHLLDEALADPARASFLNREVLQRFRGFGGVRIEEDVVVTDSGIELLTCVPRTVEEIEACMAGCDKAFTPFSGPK
UniProt P35227: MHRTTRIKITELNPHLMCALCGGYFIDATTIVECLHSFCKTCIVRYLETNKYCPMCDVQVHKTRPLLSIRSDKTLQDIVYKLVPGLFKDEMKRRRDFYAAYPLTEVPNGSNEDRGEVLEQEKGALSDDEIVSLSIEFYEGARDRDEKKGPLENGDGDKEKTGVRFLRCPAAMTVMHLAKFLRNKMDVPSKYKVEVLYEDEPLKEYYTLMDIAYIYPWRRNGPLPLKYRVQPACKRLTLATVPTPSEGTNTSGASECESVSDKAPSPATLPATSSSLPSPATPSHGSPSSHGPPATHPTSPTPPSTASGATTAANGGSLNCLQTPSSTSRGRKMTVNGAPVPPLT
UniProt Q86TB9: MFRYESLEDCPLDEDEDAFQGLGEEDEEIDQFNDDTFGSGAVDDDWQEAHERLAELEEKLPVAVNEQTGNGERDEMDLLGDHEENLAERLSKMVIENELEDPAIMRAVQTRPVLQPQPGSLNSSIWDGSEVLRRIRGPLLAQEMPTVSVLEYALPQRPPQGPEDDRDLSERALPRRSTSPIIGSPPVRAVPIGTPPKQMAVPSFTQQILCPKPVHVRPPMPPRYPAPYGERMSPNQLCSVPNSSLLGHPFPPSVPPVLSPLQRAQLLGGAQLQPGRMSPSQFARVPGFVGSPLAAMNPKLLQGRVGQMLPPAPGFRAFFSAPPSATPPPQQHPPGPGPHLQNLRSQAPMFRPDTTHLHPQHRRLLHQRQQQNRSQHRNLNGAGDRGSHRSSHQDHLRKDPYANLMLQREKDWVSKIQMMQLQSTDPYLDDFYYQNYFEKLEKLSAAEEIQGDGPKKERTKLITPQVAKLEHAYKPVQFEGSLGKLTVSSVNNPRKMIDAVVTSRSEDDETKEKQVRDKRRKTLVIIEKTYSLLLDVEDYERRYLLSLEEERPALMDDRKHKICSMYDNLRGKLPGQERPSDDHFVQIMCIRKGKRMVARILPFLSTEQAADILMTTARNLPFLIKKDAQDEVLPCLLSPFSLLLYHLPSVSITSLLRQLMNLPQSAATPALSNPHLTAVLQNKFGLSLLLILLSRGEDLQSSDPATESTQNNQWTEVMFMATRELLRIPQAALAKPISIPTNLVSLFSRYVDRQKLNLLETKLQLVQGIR
UniProt Q9BPZ3: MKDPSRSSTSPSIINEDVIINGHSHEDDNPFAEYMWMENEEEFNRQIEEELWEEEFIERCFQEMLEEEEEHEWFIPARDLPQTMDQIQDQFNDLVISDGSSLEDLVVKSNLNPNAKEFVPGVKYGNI
UniProt Q15121, whole entry, looked up: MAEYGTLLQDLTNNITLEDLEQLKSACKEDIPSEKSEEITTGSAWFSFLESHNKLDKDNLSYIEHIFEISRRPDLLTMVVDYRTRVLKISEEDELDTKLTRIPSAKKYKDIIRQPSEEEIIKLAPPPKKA

compound: CC1=C(C=C(C=C1)NC(=O)C2=CC(=CC=C2)C(C)(C)C#N)NC3=CC4=C(C=C3)N=CN(C4=O)C; test: log2 fold change, soluble protein after heating vs DMSO (PISA); higher = thermal stabilisation; K562 cells, 10 uM, 30 min; active = over 0.2 and 3.5 SD of the protein, either way, in both replicates (recomputed)
Method in brief: (§1)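 Soluble protein was defined as the supernatant after 21,000xg for 90 min. It came from K562 cells at 2×10^6 cells/mL given 10 μM compound for 30 min, heated in aliquots for 3 min across 48°C-58°C, pooled, and extracted in PBS with 0.5% NP-40 at 4°C, and was quantified by TMTpro 16plex LC-MS/MS with equalised channel sums. Thermal stability against control samples, from duplicates, is reported as log2 fold change.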

| Target | log2 fold change |
| --- | --- |
| PARP1 (UniProt P09874) | inactive: 0.116 |
| PCDH1 isoform 2 (UniProt Q08174) | inactive: -0.129 |
| PBLD (UniProt P30039) | inactive: -0.088 |
| PDZD8 (UniProt Q8NEN9) | inactive: 0.032 |
| PDK1 (UniProt Q15118) | inactive: -0.017 |
| PEF1 (UniProt Q9UBV8) | inactive: -0.011 |
| PECAM1 (UniProt P16284) | inactive: -0.092 |
| PEBP1 (UniProt P30086) | inactive: -0.007 |
| PCNP (UniProt Q8WW12) | inactive: -0.046 |
| PDIA3 (UniProt P30101) | inactive: 0.078 |
| PACS2 isoform 2 (UniProt Q86VP3) | inactive: -0.356 |
| PAGR1 (UniProt Q9BTK6) | inactive: 0.031 |
| PDXDC1 (UniProt Q6P996) | inactive: 0.13 |
| PC (UniProt P11498) | inactive: 0.07 |
| PDLIM1 (UniProt O00151) | inactive: 0.006 |
| PDF (UniProt Q9HBH1) | inactive: -0.051 |

| Target | log2 fold change |
| --- | --- |
| PDIA6 isoform 2 (UniProt Q15084) | inactive: -0.031 |
| PDIA4 (UniProt P13667) | inactive: 0.026 |
| PCBP2 isoform 3 (UniProt Q15366) | inactive: 0.054 |
| PAK3 isoform 3 (UniProt O75914) | inactive: 0.054 |
| PEPD (UniProt P12955) | inactive: -0.006 |
| PER3 isoform 2 (UniProt P56645) | inactive: -0.034 |
| PCGF2 (UniProt P35227) | inactive: -0.043 |
| PELP1 (UniProt Q8IZL8) | inactive: -0.048 |
| PAK2 (UniProt Q13177) | inactive: 0.006 |
| PARP4 (UniProt Q9UKK3) | inactive: -0.357 |
| PATL1 (UniProt Q86TB9) | inactive: 0.038 |
| PACRGL (UniProt Q8N7B6) | inactive: 0.01 |
| PAIP2 (UniProt Q9BPZ3) | inactive: -0.008 |
| PARK7 (UniProt Q99497) | inactive: 0.187 |
| PDPR (UniProt Q8NCN5) | inactive: 0.077 |
| PEA15 isoform 2 (UniProt Q15121) | inactive: 0.004 |

compound: CC1=C(C=C(C=C1)NC(=O)C2=CC(=CC=C2)N(C)C)NC(=O)C3=CC=C(C=C3)O; test: as above
Method in brief: as §1

| Target | log2 fold change |
| --- | --- |
| PARP1 (UniProt P09874) | inactive: -0.149 |
| PBLD (UniProt P30039) | inactive: 0.022 |
| PDZD8 (UniProt Q8NEN9) | inactive: -0.012 |
| PDK1 (UniProt Q15118) | inactive: -0.025 |
| PEF1 (UniProt Q9UBV8) | inactive: -0.075 |
| PECAM1 (UniProt P16284) | inactive: -0.019 |
| PEBP1 (UniProt P30086) | inactive: 0.03 |
| PCNP (UniProt Q8WW12) | inactive: 0.009 |
| PDIA3 (UniProt P30101) | inactive: -0.041 |
| PAGR1 (UniProt Q9BTK6) | inactive: 0.031 |
| PDXDC1 (UniProt Q6P996) | inactive: -0.035 |
| PC (UniProt P11498) | inactive: -0.103 |
| PDLIM1 (UniProt O00151) | inactive: 0.003 |
| PDF (UniProt Q9HBH1) | inactive: 0.045 |
| PDIA6 isoform 2 (UniProt Q15084) | inactive: -0.01 |
| PDIA4 (UniProt P13667) | inactive: -0.018 |
| PCBP2 isoform 3 (UniProt Q15366) | inactive: -0.024 |
| PAK3 isoform 3 (UniProt O75914) | inactive: 0 |
| PEPD (UniProt P12955) | inactive: 0.001 |
| PER3 isoform 2 (UniProt P56645) | inactive: 0.061 |
| PCGF2 (UniProt P35227) | inactive: -0.058 |
| PELP1 (UniProt Q8IZL8) | inactive: 0.044 |
| PAK2 (UniProt Q13177) | inactive: -0.001 |
| PATL1 (UniProt Q86TB9) | inactive: 0.031 |
| PAIP2 (UniProt Q9BPZ3) | inactive: 0.04 |
| PARK7 (UniProt Q99497) | inactive: -0.002 |
| PDPR (UniProt Q8NCN5) | inactive: 0.015 |
| PEA15 isoform 2 (UniProt Q15121) | inactive: -0.039 |

compound: CC1=CC=C(C=C1)SC2=C3C=C(SC3=CN=C2)C(=O)N; test: as above
Method in brief: as §1

| Target | log2 fold change |
| --- | --- |
| PARP1 (UniProt P09874) | inactive: 0.071 |
| PBLD (UniProt P30039) | inactive: 0.005 |
| PDZD8 (UniProt Q8NEN9) | inactive: -0.042 |
| PDK1 (UniProt Q15118) | inactive: -0.029 |
| PEF1 (UniProt Q9UBV8) | inactive: 0.027 |
| PECAM1 (UniProt P16284) | inactive: -0.013 |
| PEBP1 (UniProt P30086) | inactive: 0.015 |
| PCNP (UniProt Q8WW12) | inactive: 0.017 |
| PDIA3 (UniProt P30101) | inactive: -0.052 |
| PAGR1 (UniProt Q9BTK6) | inactive: 0.019 |
| PDXDC1 (UniProt Q6P996) | inactive: -0.052 |
| PC (UniProt P11498) | inactive: 0.038 |
| PDLIM1 (UniProt O00151) | inactive: 0.039 |
| PDF (UniProt Q9HBH1) | inactive: 0.018 |
| PDIA6 isoform 2 (UniProt Q15084) | inactive: -0.013 |
| PDIA4 (UniProt P13667) | inactive: -0.047 |
| PCBP2 isoform 3 (UniProt Q15366) | inactive: 0.065 |
| PAK3 isoform 3 (UniProt O75914) | inactive: 0.087 |
| PEPD (UniProt P12955) | inactive: 0.194 |
| PER3 isoform 2 (UniProt P56645) | inactive: -0.064 |
| PCGF2 (UniProt P35227) | inactive: -0.056 |
| PELP1 (UniProt Q8IZL8) | inactive: 0.034 |
| PAK2 (UniProt Q13177) | inactive: -0.005 |
| PATL1 (UniProt Q86TB9) | inactive: -0.025 |
| PAIP2 (UniProt Q9BPZ3) | inactive: 0.019 |
| PARK7 (UniProt Q99497) | inactive: 0.096 |
| PDPR (UniProt Q8NCN5) | inactive: 0.031 |
| PEA15 isoform 2 (UniProt Q15121) | inactive: 0.042 |
